# Experimental data taken from PubChem BioAssay AID1347076 (National Center for Advancing Translational Sciences (NCATS), 2019).
# Values joined by “and” are separate entries in the source; they are usually repeats but may differ in a detail not shown here. Identical values can stand only once. About 13,000 (3.2%) of roughly 400,000 compounds were called active. The inconclusive results got no clear call from the source; some entries with a clear call stand among them for comparison. Calls follow the shape of the dose curve; as a rule, active = well fitted cell-killing curve with a large enough effect; inconclusive = small, poorly fitted or top-dose-only effect, or effect the other way; inactive = flat fitted curve, though single readings scatter. Where the call is inconclusive, the potency comes from a doubtful curve fit.
# Assay: qHTS assay for MDR1-selective chemotherapeutics: Primary screen using the drug-selected MDR subline cells KB-V1; also: nearly all actives have a fitted effect of over 60% in size
# Settings: KB-V1 MDR cells viability, CellTiter-Glo, 72 h; activity change, negative = cytotoxicity: at 46.1 µM (top of the series)
# Method in brief: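 Luminescent ATP read-out (CellTiter-Glo, 10 min) measures survival of drug-selected KB-V1 MDR cells after 72 h, 37 degrees C compound exposure. Medium: phenol-red-free DMEM, 10% FBS. Values from fitted concentration-response curves.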
# % is scaled to controls: 0 for no effect and ±100 for the full control effect; potency is read from the fitted curve at half-maximal effect.
Compound,Potency,"activity change, negative = cytotoxicity"
COc1cc(C2c3c(oc4ccccc4c3=O)C(=O)N2CCN2CCOCC2)cc(OC)c1OC (stereo not given),"inconclusive: 23.1 µM [rising, single point]",
CSCCC(NS(=O)(=O)c1cccc(C(F)(F)F)c1)C(=O)Nc1ccccc1N1CCCC1 (stereo not given),"inconclusive: 7.31 µM [cytotoxic, partial curve]",
COc1ccccc1CNS(=O)(=O)c1ccc2c(c1)CC(C)N2C(=O)C1CC1 (stereo not given),"inconclusive: 7.31 µM [cytotoxic, single point]",
O=C(NCCC(=O)N1CCC2(CC1)NCCc1[nH]cnc12)c1cccc(Br)c1,inactive,
CC(C)c1nc2ccccc2c2nnc(SCC(=O)NCc3ccco3)n12,active: 4.11 µM,
S=C(NC1CCCCC1)N(CCc1nc2ccccc2[nH]1)C1CCCC1,active: 16.4 µM,
Oc1c(Cl)cc(Cl)cc1CNc1ccc(Br)cn1,inactive,
O=C(O)C1=CC[C@@H](c2ccc(Cl)cc2)N(S(=O)(=O)c2ccc(Cl)cc2)[C@H]1c1ccc(Br)cc1,inactive,
Cc1cccc(C(=O)NCCc2sc(-c3ccccc3)nc2C)c1,"inconclusive: 13 µM [cytotoxic, partial curve]",
CCOc1ncccc1C(=O)OCc1cn2cc(Cl)ccc2n1,"inconclusive: 20.6 µM [cytotoxic, single point]",
O=C(COC(=O)CCCSc1nc2ccccc2[nH]1)Nc1ccc(Cl)cc1,"inconclusive: 18.4 µM [rising, partial curve, poor fit]",
C(=Nc1ccc(Nc2ccccc2)cc1)c1ccc2ccccc2c1,inactive,
O=C(NCCc1ccc(Cl)cc1)c1cccc(N2CCCC2=O)c1,inactive,
COc1cccc(C(=O)C2CCCN(C(=O)CCc3scnc3C)C2)c1 (stereo not given),"inconclusive: 13 µM [cytotoxic, partial curve]",
CCOC(=O)c1ccc(NC(=O)N2CCCCCC2)cc1,"inconclusive: 29.1 µM [cytotoxic, partial curve, poor fit]",
COc1ccc(C2CC(=O)C=C(NCc3ccccc3)C2)cc1 (stereo not given),"inconclusive: 20.6 µM [cytotoxic, single point]",
CCOC(=O)C1CCCN(c2nc3ccccc3nc2C(C#N)C(=O)OCC)C1 (stereo not given),"inconclusive: 25.9 µM [cytotoxic, single point]",
Cc1cccn2c(=O)c3cc(C(=O)N4COCC4(C)C)n(C)c3nc12,"inconclusive: 10.3 µM [cytotoxic, partial curve, poor fit]",
COc1ccc(CNS(=O)(=O)CCNC(=O)c2ccccc2)cc1,inactive,
CCCNC(=O)c1onc(CSc2ccc(F)cc2)c1C(=O)NCCC,inactive,
CC1CN(C(=O)c2ccccc2OCc2ccc(Cl)cc2Cl)CC(C)O1 (stereo not given),inactive,
COc1ccc(C(NC(=O)C2CCN(CCOc3ccc(Cl)cc3Cl)CC2)c2cccs2)cc1 (stereo not given),"inconclusive: 29.1 µM [cytotoxic, single point]",
CC(Oc1cccc([N+](=O)[O-])c1)C(=O)NCCC1=CCCCC1 (stereo not given),"inconclusive: 6.51 µM [cytotoxic, partial curve]",
CCOc1ccc(NS(=O)(=O)c2ccc(NC(C)=O)c(OC)c2)cc1,"inconclusive: 18.4 µM [cytotoxic, partial curve, poor fit]",

Compound,Potency,"activity change, negative = cytotoxicity"
O=C(CSc1ncn[nH]1)NCc1ccc(Cl)cc1,"inconclusive: 20.6 µM [rising, partial curve, poor fit]",
COc1ccc(S(=O)(=O)N(Cc2ccc(OC)c(OC)c2)Cc2ccco2)cc1,"inconclusive: 6.51 µM [cytotoxic, partial curve]",
O=C(OCC1OC2OC3(CCCCC3)OC2C2OC3(CCCCC3)OC12)c1ccccc1 (stereo not given),"inconclusive: 18.4 µM [cytotoxic, single point]",
COC(=O)c1[nH]c2cc(C)ccc2c1NC(=O)CN1CCCc2ccccc21,inactive,
Nc1ncnc2nc(SCc3ccc(Cl)cc3Cl)[nH]c12,"inconclusive: 20.6 µM [cytotoxic, single point]",
COc1ccc(CNC(=O)c2sc(=O)n(Cc3ccccc3C)c2C)cc1,"inconclusive: 14.6 µM [cytotoxic, partial curve]",
COc1cccc(NC(=S)NC(=O)c2c(Cl)c(C)nn2C)c1,"inconclusive: 14.6 µM [cytotoxic, partial curve]",
CC1(C)CC(=O)C(C2(O)C(=O)N(Cc3ccccc3)c3ccccc32)CO1 (stereo not given),inactive,
O=C(/C=C/C(Cl)(Cl)Cl)Nc1ccc(Cl)cc1,"inconclusive: 18.4 µM [cytotoxic, single point]",
O=C(O)C1CCN(S(=O)(=O)c2cccc3nonc23)CC1,"inconclusive: 20.6 µM [rising, partial curve, poor fit]",
CC(C)c1nc(C(=O)N2CCCC(N3CCN(c4cccc(Cl)c4)CC3)C2)cs1 (stereo not given),"inconclusive: 4.11 µM [cytotoxic, partial curve, poor fit]",
Cc1ccc2nc(N/N=C/c3ccco3)cc(C)c2c1,"inconclusive: 29.1 µM [cytotoxic, single point]",
O=C(CCc1nnc2ccc(N3CCC4(CC3)OCCO4)nn12)NCc1ccc(F)cc1,inactive,
CCc1ccc2nc(N(CCCN(C)C)C(=O)c3ccc(S(=O)(=O)N4CCCC4)cc3)sc2c1,inactive,
COc1cc2c(cc1NS(=O)(=O)c1cccc(C#N)c1)n(C)c(=O)n2C,inactive,
COCCOC(=O)c1[nH]c2c(c1C)C(=O)CC(c1cc(OC)ccc1OC)C2 (stereo not given),"inconclusive: 23.1 µM [cytotoxic, partial curve, poor fit]",
OCC1CCCCN1C(=S)Nc1ccc(Cl)cc1Cl (stereo not given),inactive,
COc1ccc(NS(=O)(=O)c2cccc(C(=O)N3CCN(C/C=C/c4ccccc4)CC3)c2)cc1,"inconclusive: 25.9 µM [cytotoxic, partial curve]",
O=S(=O)(c1ccccc1)n1cc(-c2cccc3nccn23)c2ccccc21,"inconclusive: 25.9 µM [cytotoxic, single point]",
C/C(N)=C(/C#N)C(=O)COC(=O)c1cc(C)n(-c2ccc(F)cc2)c1C,"inconclusive: 23.1 µM [cytotoxic, single point] and inconclusive: 32.6 µM [cytotoxic, single point]",
COc1cc2c(c3oc(-c4ccccc4)cc(=O)c13)C=CC(C)(C)O2,"inconclusive: 29.1 µM [cytotoxic, single point]",
COCCNC(=S)N/N=C/c1ccc(OCc2ccc(C(=O)OC)cc2)c(OC)c1,"inconclusive: 13 µM [cytotoxic, partial curve, poor fit]",
CCOc1cc(Br)cc(/C=C2\SC(=Nc3ccccc3)NC2=O)c1O,"inconclusive: 25.9 µM [cytotoxic, single point]",
CSCCC(=O)N1C(C)CCCC1C(=O)O (stereo not given),"inconclusive: 4.61 µM [rising, partial curve, poor fit]",

Compound,Potency,"activity change, negative = cytotoxicity"
COc1cccc(/C=C2/C(=O)NN(c3ccc(C)c(C)c3)C2=O)c1,"inconclusive: 29.1 µM [rising, single point]",
O=[N+]([O-])c1ccc(N2CCN(Cc3ccccc3)CC2)c2c1no[n+]2[O-],active: 6.51 µM,
Cc1cc(C)c(NC(=O)c2cccc3c2C(=O)N(C2CCCCC2)C3)c(C)c1,"inconclusive: 20.6 µM [cytotoxic, single point]",
Cc1cccnc1NC(=O)CCC(=O)c1cccs1,inactive,
O=C(O)COc1ccc(-c2nccc(-c3ccccn3)n2)cc1,,inconclusive: 3.39%
CCc1nc(CN2CCCC(C(=O)c3ccc4c5c(cccc35)CC4)C2)c(C)[nH]1 (stereo not given),"inconclusive: 14.6 µM [cytotoxic, partial curve]",
CC(C)C1Oc2ccccc2N(CC(=O)NCCCN2C(C)CCCC2C)C1=O (stereo not given),inactive,
CCOc1ccc(-n2cc(C(=O)Nc3cccc(C)n3)c3cc(OC)c(OC)cc3c2=O)cc1,"inconclusive: 25.9 µM [cytotoxic, single point]",
Cc1cc(C)n2nc(-c3cccc(Br)c3)cc2n1,"inconclusive: 18.4 µM [rising, single point]",
O=S(=O)(Nc1cccc(-c2cn3c(n2)SCC3)c1)c1ccccc1,"inconclusive: 16.4 µM [cytotoxic, single point]",
CCOC(=O)[C@]12CCC=C1N(Cc1ccco1)C(=O)[C@H](CC(=O)N1CCOCC1)C2,inactive,
CCCc1ccc(-c2c(C)sc(NC(=O)c3ccnn3C)c2C#N)cc1,"inconclusive: 32.6 µM [cytotoxic, single point]",
CCOC(=O)c1ccccc1NC(=O)Cn1c(-c2nonc2N)nc2ccccc21,active: 1.46 µM,
O=C(NC(=C(Cl)Cl)S(=O)(=O)c1ccc(Cl)cc1)c1ccccc1,"inconclusive: 14.6 µM [cytotoxic, partial curve, poor fit]",
O=C(NCc1cccc(F)c1)C1=Cc2cc(Br)ccc2OC1,inactive,
COc1cc(C(=O)NC(=S)Nc2ccc([N+](=O)[O-])cc2C)cc(OC)c1OC,active: 2.06 µM,
CCN1C(=O)c2cccc3c(S(=O)(=O)N(C(=O)c4ccncc4)c4ccc(OC)cc4)ccc1c23,"inconclusive: 16.4 µM [cytotoxic, single point]",
COc1ccc(-c2cc(-c3ccco3)[nH]c(=O)c2C#N)cc1,inactive,
Cc1c(-c2n[nH]c(=S)n2-c2ccc(C(F)(F)F)cc2)nnn1-c1ccccc1,active: 23.1 µM,
CCOc1ccccc1C(=O)Nc1c(NC)c2ccccc2oc1=O,inactive,
COc1ccc(NC(=O)/C(=C\c2ccco2)NC(=O)c2ccco2)cc1,inactive,
Cc1cc(=O)[nH]c(N2CCN(Cc3ccccc3)CC2)n1,inactive,
